The values that follow come from US20240376188A1 (UNIVERSITY OF NORTH CAROLINA AT CHAPEL HILL, published 2024).

Residue numbers refer to the chain shown, from its start. No constants are given. Whether binding was seen depends on the method and setting. Some binding calls cover weakened binding; strength is not graded here. Ends that are not written are not given here.

For test [1], the target named is Ac-K280 tau in human Braak VI Alzheimer's disease post-mortem brain (neurofibrillary tangles, plaque-associated pathology) (human) (UniProt P10636). The test can be described thus: immunohistochemistry, cortical sections of four AD patients, antibody at 1:25 (FIG. 14A).
Test [2] has the same target. The test is described as follows: immunohistochemistry, AD brain (legend of FIG. 7).
For test [3] the target is unchanged. The test is described as follows: immunohistochemistry, human Braak VI AD brain sections, antibody at 1:25.
Test [4] concerns the target Ac-K311 tau in human Braak VI Alzheimer's disease post-mortem brain (neurofibrillary tangles, plaque-associated pathology) (human) (UniProt P10636). The test is described as follows: immunohistochemistry, cortical sections of four AD patients, antibody at 1:25 (FIG. 14B).

B1: 19B6 (antibody, V domains shown)
VH: EVQLQQSGAEFVRPGASVKLSCTVSGLNIEDDYIQWLKQRPEQGLEWIGWIDPENGDPKYASKFQGKATLTADTSSKIAYLHLSSLTSEDTAVYYCATRGLWGQGTTLTVSS
VL: QIVLTQSPAIMSASLGERVTMTCTASSSVSSSYFHWYQQKPGSSPKLWIYSTSNLASGVPVRFSGSGSGTSYSLTISSMEAEDAATYYCHQYHRSPLTFGAGTKLELK
notes: Used as hybridoma supernatant in the peptide ELISA; also called Ac-K280 clone 19B6
B1: the binding result in test [1], in test [2] and in test [3] was “binds” throughout.

B2: 17G8 (antibody, V domains shown)
VH: B1 VH
VL: B1 VL
notes: Used as hybridoma supernatant in the peptide ELISA; also called Ac-K280 clone 17G8
Regarding B2, the binding result in test [1], in test [2] and in test [3] was “binds” each time.

B3: 14G8 (antibody, V domains shown)
VH: EVQLQQSGAELVRPGSSVKMSCKTSGYTFTNYGLNWVKQRPGQGLEWIGYIYIGNGYTDYNENFKGKATLTSDTSSSTAYMQLSSLTSEDSAIYFCARWRPGYFFDYWGQGTTLTVSS
VL: DVLMTQTPLSLPVGLGDQASISCRSSQNIVHSNGDTYLEWYLLKPGQSPQLLIYKVSNRFSGVPDRFSGGGSGTDFILKISRVEAEDLGVYYCFQSSLVPLTFGAGTKLELK
As for B3, in test [4], the binding result is listed as “binds”.

B4: 15E8 (antibody, V domains shown)
VH: EVQLQQSGAELVRPGSSVKMSCKTSGYTFTNYGLNWVKQRPGQGLEWIGYIYIGNGYTDYNENFKGKATLTSDTSSSTAYMQLSSLTSEDSAIYFCARWRPGYFFDYWGQGTTLTVS
VL: B3 VL with G14S, S32T, I77T, Y92F
Regarding B4, the binding result in test [4] was “binds”.
